From PubChem BioAssay AID2685 (National Center for Advancing Translational Sciences (NCATS), 2010)
The other results are listed elsewhere or left out. These are further read-outs of the screen, such as a control signal, another cell line or another target. No call is given for them. Most of these compounds were active or inconclusive in the main read-out, so they are no random draw. Potencies come from curve fits of mixed quality, noted in brackets.

Assay: qHTS Assay for Lipid Storage Modulators in Drosophila S3 Cells;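 for cell number change: cells counted by Cell Tracker Red CMTPX staining in the red channel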
Conditions: BODIPY lipid droplet fluorescence, 18-24 h; for cell number change: measured here: cell count max response, cells fed with added oleic acid
Summary of the method: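 Drosophila S3 cells loaded with oleic acid (400 uM, as added) and compounds at several concentrations; lipid droplets imaged by 488-nm laser-scanning cytometry, 500–530 nm intensity and object ratio to cell channel. Percent activity normalized to 20 uM Triacsin C.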

[1] = measured here: cell number channel AC50, cells fed with added oleic acid
[2] = measured here: lipid fluorescence (Fed channel) AC50, cells fed with added oleic acid

Row | SMILES | cell number change | AC50 [1] | AC50 [2]
1 | COc1ccc(/C(O)=C2/C(=O)C(=O)N(c3ncccn3)C2c2ccc(F)cc2)cc1 (stereo not drawn) | -49.8% |  | 
2 | O=S(=O)(NCC(c1ccc2c(c1)OCO2)N1CCOCC1)c1ccc(Br)cc1 (stereo not drawn) | 43.7% | 20.6 µM [rising, partial curve] | 0.103 µM [rising, full curve, poor fit]
3 | CCN1CCN(C(=O)c2ccc(CN(c3ccccc3)S(=O)(=O)c3ccccc3)cc2)CC1 |  | 2.91 µM [rising, single point] | 
4 | COc1ccc(-c2nn3c(C4CCCCC4)nnc3s2)cc1OC |  | 0.731 µM [falling, single point] | 1.03 µM [falling, single point]
5 | O=C(CCn1c(=O)oc2cc(Cl)ccc21)Nc1ccc(N2CCOCC2)cc1 | -31.4% | 0.058 µM [falling, full curve, poor fit] | 6.51 µM [rising, single point]
6 | COc1ccc(C(=O)C[n+]2cccc3cc(C)ccc32)cc1 | -17.1% |  | 16.4 µM [falling, single point]
7 | O=C(CSc1nnc(-c2ccco2)n1Cc1ccccc1)c1ccc(F)cc1 | 1.1% |  | 25.9 µM [rising, partial curve]
8 | COc1ccc(-c2csc(NC(=O)C(CC(=O)O)N3CCOCC3)n2)cc1 (stereo not drawn) | 1.92% |  | 29.1 µM [rising, single point]
9 | Cc1ccc(S(=O)(=O)/N=c2\sccn2C)cc1 | -31.9% | 32.6 µM [falling, partial curve, poor fit] | 
10 | O=C(NCCc1cccs1)C1CC(c2ccccc2[N+](=O)[O-])=NO1 (stereo not drawn) | -12% |  | 
11 | COc1ccccc1NC(=O)c1ccc2c(c1)C(=O)N(c1ccccc1OC)C2=O | -22.3% |  | 14.6 µM [falling, single point]
12 | O=C(CSc1nnc2c(n1)[nH]c1ccccc12)Nc1ccc(N2CCOCC2)cc1 | 9.64% |  | 
13 | CSc1ccc(OC2CCCCC2NS(=O)(=O)c2ccc(Cl)cc2)cc1 (stereo not drawn) | 30.3% | 4.11 µM [rising, partial curve, poor fit] | 
14 | COc1ccc(CN2CCCC(CNC(=O)c3ccc(F)cc3)C2)cc1OC (stereo not drawn) | -41.4% | 5.8 µM [falling, full curve] | 8.2 µM [falling, partial curve, poor fit]
15 | O=C(CSc1cn(Cc2ccccc2)c2ccccc12)Nc1nccs1 | -9.17% | 0.184 µM [rising, partial curve] | 
16 | CC(=O)c1ccc(N2CCN(C(=O)c3cc4c(-c5ccccc5F)nn(C)c4s3)CC2)cc1 |  | 6.51 µM [rising, single point] | 7.31 µM [rising, partial curve, poor fit]
17 | CC(=O)Nc1ccc(C(=O)OCC(=O)N(c2ccccc2)C2CCS(=O)(=O)C2)cc1 (stereo not drawn) | 6.33% |  | 0.00461 µM [rising, full curve]
18 | CCc1ccc(C(=O)COC(=O)CNC(=O)C2CCCCC2)cc1 | 27.9% | 0.461 µM [falling, single point] | 
19 | CC1(C)CC(=O)C(C=NCCc2ccccn2)=C(O)C1 | 3.04% |  | 0.651 µM [falling, partial curve, poor fit]
20 | c1ccc(CNc2nc3ccccc3[nH]2)cc1 | -18.2% | 6.51 µM [falling, single point] | 

Row | SMILES | cell number change | AC50 [1] | AC50 [2]
21 | CN(CCC1CCOCC1)C(=O)CC1C(=O)NCCN1C/C=C/c1ccccc1 (stereo not drawn) | -21.7% |  | 0.164 µM [falling, partial curve, poor fit]
22 | O=C(c1cc2nc(-c3ccccc3)cc(-c3ccccc3)n2n1)N1CCN(C(=O)c2ccco2)CC1 | 4.51% | 1.64 µM [rising, partial curve] | 0.731 µM [rising, partial curve]
23 | O=C1NCCCN1Cc1ccc(F)cc1Cl | 12.6% |  | 
24 | O=C(Nc1cccc(S(=O)(=O)N2CCCCC2)c1)c1ccco1 | 3.09% |  | 6.51 µM [rising, single point]
25 | CC(=O)Nc1ccc2nc(CN3CCN(Cc4ccc(F)cc4)C(CCO)C3)ccc2c1 (stereo not drawn) | 17.3% |  | 29.1 µM [rising, single point]
26 | CC(NC(=O)c1ccccc1NC(=O)CSc1nnnn1C)c1ccccc1 (stereo not drawn) | 19.6% |  | 4.61 µM [falling, single point]
27 | CCC(C)(C)NC(=O)C(c1ccc(O)cc1)N(C(=O)Cn1nnc2ccccc21)c1ccc(NC(C)=O)cc1 (stereo not drawn) | -7.33% |  | 6.51 µM [falling, single point]
28 | Cc1ccc(C(=O)COC(=O)c2ccncc2)cc1[N+](=O)[O-] | -12% |  | 0.00411 µM [rising, full curve, poor fit]
29 | NC(=O)c1ccccc1N/C=C/C(=O)c1ccc(Cl)cc1 | -22.4% |  | 10.3 µM [rising, single point]
30 | Cc1ccc(C(=O)NC(=S)N2CCCCCC2)cc1 | 17% |  | 0.146 µM [falling, full curve, poor fit]
31 | COc1cc2cc(CCCOC(=O)c3ccc(Br)cc3)oc(=O)c2cc1OC | -13.1% |  | 0.517 µM [rising, partial curve]
32 | CN(Cc1ccccc1)C(=O)COC(=O)c1ccc(S(=O)(=O)N(C)C)cc1 | 83.8% | 14.6 µM [rising, partial curve] | 
33 | O=C(Nc1cccc(-c2nc3ncccc3o2)c1)c1ccco1 | 59.7% | 1.3 µM [rising, full curve] | 2.91 µM [rising, partial curve]
34 | CN(C)c1ccc(NC(=O)CN2CCc3ccccc3C2)cc1 | 8.87% |  | 
35 | Cc1cc(C)c(NC(=O)CS(=O)CC(=O)Nc2cccnc2)c(C)c1 (stereo not drawn) | -10.6% |  | 0.82 µM [rising, full curve, poor fit]
36 | COc1ccc(NC(=O)c2cccc(C(=O)Nc3ccc(OC)cc3)n2)cc1 | 6.37% |  | 
37 | Cc1cc2cccc(C)c2nc1SCC(=O)NNC(=O)c1ccco1 | 1.94% |  | 
38 | Cc1ccc(CN(c2ccc(C(=O)N3CCCC3)cc2)S(C)(=O)=O)cc1 | -5.1% |  | 
39 | Cc1cccc(NC(=O)c2ccc(NCCc3ccccc3)c([N+](=O)[O-])c2)c1 |  |  | 18.4 µM [falling, partial curve]

From compound 12 to 14, as listed above:
Row | SMILES | cell number change | AC50 [1] | AC50 [2]
12 | O=C(CSc1nnc2c(n1)[nH]c1ccccc12)Nc1ccc(N2CCOCC2)cc1 | 9.64% |  | 
13 | CSc1ccc(OC2CCCCC2NS(=O)(=O)c2ccc(Cl)cc2)cc1 (stereo not drawn) | 30.3% | 4.11 µM [rising, partial curve, poor fit] | 
14 | COc1ccc(CN2CCCC(CNC(=O)c3ccc(F)cc3)C2)cc1OC (stereo not drawn) | -41.4% | 5.8 µM [falling, full curve] | 8.2 µM [falling, partial curve, poor fit]
